Results on 1 substance are retold here after patent publication US9464128B2 (INSTITUTE OF PHARMACOLOGY AND TOXICOLOGY ACADEMY OF …, priority 2007, dated 2016).

The data set in a line: general procedure: Fmoc solid-phase peptide synthesis; MBHA resin; DCC-HOBt. Conditions: whole synthesis, scale 0.12 mmol.

For the substance [D-Ala^1,Cys^7,D-Ala^30]sCT, the crude mass is 400 mg.
